{
  "sequences": {"note": "Protein sequences, listed by entry. Tags and fused reporters are not part of them. Lines headed by an entry give the natural chain unless they say otherwise; changes in a name come on top.", "UniProt P30414": "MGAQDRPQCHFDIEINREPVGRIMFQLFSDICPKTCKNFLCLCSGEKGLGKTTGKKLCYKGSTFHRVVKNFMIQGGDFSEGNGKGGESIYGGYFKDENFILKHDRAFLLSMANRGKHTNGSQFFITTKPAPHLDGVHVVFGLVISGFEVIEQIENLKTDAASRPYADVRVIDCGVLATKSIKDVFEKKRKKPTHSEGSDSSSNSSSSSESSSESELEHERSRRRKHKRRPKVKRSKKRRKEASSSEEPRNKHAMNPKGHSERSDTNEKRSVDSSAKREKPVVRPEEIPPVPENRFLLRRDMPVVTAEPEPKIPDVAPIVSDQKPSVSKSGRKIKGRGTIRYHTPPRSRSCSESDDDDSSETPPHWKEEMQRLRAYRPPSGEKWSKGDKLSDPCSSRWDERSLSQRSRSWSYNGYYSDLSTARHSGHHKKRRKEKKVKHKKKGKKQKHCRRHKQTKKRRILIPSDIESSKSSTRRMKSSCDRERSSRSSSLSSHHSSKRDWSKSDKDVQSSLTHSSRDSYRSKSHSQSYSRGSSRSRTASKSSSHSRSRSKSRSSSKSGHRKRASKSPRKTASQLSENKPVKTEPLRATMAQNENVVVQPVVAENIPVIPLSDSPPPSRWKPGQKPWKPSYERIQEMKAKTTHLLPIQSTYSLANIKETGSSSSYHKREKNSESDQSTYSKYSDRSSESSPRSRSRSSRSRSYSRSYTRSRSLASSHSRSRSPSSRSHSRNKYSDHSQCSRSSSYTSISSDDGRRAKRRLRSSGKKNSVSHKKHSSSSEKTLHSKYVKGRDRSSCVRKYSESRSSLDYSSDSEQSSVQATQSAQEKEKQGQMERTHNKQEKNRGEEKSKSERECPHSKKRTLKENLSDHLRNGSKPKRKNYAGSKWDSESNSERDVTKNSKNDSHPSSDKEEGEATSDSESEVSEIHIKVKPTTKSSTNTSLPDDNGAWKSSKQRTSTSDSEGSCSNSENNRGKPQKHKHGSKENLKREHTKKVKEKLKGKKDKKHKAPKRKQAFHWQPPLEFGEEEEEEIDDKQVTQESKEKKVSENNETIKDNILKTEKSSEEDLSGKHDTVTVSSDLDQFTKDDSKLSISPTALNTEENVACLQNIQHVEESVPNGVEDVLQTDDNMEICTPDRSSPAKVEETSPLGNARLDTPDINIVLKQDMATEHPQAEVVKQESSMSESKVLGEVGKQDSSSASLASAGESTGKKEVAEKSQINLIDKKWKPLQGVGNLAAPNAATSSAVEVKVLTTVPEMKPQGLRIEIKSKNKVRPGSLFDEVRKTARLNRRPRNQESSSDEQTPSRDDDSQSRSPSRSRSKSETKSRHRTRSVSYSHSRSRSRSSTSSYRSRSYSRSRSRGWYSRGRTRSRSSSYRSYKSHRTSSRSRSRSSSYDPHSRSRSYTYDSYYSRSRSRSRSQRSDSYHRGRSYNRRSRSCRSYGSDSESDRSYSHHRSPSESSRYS", "UniProt Q8WX92, whole entry, looked up": "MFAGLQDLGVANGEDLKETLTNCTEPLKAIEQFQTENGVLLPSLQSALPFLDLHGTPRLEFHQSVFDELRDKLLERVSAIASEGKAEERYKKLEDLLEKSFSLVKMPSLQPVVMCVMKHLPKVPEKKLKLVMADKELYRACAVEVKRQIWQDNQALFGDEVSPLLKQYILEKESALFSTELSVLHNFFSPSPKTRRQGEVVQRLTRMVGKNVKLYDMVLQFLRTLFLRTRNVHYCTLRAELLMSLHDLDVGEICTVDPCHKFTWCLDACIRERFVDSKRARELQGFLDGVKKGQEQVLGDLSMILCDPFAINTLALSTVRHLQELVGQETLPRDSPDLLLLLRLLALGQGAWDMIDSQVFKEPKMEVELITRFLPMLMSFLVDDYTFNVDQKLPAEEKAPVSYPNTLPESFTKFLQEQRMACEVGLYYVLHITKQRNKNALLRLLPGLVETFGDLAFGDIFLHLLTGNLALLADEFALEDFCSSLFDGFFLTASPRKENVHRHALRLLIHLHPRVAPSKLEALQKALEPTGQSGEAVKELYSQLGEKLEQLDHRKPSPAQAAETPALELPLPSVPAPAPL", "UniProt P49821, whole entry, looked up": "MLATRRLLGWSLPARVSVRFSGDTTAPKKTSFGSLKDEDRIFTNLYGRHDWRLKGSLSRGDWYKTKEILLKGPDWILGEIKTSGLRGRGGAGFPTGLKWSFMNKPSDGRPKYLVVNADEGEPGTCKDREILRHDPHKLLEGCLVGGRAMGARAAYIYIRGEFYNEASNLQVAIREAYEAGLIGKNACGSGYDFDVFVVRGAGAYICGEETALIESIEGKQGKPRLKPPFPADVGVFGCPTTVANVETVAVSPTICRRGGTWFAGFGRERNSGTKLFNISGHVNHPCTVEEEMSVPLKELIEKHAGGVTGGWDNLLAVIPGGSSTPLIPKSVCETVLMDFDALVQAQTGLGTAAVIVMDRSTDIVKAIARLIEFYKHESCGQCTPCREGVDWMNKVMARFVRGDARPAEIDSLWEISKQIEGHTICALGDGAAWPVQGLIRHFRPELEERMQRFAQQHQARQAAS", "UniProt Q9H3P2, whole entry, looked up": "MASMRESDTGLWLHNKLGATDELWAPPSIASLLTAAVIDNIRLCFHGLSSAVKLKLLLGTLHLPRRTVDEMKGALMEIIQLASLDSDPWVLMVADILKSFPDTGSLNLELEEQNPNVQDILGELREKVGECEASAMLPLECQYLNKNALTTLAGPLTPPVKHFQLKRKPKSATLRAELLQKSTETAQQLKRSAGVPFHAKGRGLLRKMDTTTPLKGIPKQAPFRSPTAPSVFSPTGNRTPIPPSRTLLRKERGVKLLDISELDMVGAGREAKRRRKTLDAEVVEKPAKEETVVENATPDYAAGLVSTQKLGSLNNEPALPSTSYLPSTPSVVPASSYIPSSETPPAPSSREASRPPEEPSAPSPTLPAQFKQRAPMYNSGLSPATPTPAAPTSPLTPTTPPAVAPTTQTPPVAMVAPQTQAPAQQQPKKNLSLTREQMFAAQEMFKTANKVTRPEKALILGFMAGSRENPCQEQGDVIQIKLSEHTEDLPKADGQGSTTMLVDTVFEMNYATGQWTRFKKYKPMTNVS", "UniProt Q9UN36": "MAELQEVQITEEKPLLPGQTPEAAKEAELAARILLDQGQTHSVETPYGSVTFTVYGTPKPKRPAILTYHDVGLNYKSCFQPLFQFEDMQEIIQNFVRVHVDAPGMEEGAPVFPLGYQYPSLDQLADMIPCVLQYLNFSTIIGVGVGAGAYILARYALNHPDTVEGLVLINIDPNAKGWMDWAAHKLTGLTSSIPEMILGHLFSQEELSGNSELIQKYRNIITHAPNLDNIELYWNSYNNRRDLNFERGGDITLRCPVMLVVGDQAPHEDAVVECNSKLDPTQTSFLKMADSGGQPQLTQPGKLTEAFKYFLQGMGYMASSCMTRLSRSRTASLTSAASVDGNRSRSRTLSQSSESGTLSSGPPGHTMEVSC", "UniProt P55160": "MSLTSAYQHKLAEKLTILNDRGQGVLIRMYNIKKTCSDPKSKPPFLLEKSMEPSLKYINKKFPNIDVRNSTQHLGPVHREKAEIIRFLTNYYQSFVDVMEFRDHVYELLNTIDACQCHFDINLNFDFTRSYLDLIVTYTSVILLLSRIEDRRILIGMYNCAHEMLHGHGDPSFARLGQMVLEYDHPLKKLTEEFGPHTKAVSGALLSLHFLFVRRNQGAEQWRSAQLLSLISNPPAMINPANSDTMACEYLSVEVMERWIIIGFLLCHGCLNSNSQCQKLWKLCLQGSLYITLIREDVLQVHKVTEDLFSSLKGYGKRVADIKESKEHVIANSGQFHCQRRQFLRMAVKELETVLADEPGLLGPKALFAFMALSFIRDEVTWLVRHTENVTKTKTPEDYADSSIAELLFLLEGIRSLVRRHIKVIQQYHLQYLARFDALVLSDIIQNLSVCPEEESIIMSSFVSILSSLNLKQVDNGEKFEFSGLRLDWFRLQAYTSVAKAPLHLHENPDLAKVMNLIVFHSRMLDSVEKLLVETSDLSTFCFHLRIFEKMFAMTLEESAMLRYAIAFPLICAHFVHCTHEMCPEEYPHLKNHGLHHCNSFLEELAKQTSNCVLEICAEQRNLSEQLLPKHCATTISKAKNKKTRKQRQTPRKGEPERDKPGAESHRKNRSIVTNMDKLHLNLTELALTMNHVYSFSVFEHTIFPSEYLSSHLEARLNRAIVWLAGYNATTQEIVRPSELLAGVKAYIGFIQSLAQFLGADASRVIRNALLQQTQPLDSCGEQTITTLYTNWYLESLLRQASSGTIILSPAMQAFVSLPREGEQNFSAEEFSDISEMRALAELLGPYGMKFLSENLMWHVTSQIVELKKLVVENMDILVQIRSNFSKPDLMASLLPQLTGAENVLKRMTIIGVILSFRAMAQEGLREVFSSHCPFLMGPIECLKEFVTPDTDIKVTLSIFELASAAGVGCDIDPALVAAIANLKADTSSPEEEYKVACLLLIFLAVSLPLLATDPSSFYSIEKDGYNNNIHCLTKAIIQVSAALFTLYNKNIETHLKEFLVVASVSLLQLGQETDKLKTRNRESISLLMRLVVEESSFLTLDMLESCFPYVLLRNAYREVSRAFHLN", "UniProt P51970, whole entry, looked up": "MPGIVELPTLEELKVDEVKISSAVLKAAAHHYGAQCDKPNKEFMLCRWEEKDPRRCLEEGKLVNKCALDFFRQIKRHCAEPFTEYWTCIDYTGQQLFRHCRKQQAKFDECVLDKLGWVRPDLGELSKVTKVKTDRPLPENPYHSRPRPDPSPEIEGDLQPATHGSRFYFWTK", "UniProt O95299, whole entry, looked up": "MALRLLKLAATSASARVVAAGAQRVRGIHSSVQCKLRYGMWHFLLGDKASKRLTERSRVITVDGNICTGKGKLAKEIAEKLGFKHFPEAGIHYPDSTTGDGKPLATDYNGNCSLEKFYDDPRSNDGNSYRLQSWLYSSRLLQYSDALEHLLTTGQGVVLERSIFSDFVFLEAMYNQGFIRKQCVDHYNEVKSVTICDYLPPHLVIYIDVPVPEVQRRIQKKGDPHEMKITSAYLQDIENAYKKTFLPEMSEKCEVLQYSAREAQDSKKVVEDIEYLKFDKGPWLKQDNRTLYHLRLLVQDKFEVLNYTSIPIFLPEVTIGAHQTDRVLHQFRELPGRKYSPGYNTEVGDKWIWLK", "UniProt O75380, whole entry, looked up": "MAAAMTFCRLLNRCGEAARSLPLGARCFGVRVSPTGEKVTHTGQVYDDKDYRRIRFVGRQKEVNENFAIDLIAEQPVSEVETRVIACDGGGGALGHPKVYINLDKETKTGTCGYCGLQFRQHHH", "UniProt Q8NC96": "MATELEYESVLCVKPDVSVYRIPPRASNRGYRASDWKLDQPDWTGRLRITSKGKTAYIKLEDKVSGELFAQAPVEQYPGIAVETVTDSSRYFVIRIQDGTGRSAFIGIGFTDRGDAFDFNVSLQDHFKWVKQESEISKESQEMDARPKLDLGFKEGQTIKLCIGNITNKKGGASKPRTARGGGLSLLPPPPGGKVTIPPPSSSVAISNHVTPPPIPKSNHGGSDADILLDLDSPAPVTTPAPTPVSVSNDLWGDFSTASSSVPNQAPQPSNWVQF", "UniProt Q12968": "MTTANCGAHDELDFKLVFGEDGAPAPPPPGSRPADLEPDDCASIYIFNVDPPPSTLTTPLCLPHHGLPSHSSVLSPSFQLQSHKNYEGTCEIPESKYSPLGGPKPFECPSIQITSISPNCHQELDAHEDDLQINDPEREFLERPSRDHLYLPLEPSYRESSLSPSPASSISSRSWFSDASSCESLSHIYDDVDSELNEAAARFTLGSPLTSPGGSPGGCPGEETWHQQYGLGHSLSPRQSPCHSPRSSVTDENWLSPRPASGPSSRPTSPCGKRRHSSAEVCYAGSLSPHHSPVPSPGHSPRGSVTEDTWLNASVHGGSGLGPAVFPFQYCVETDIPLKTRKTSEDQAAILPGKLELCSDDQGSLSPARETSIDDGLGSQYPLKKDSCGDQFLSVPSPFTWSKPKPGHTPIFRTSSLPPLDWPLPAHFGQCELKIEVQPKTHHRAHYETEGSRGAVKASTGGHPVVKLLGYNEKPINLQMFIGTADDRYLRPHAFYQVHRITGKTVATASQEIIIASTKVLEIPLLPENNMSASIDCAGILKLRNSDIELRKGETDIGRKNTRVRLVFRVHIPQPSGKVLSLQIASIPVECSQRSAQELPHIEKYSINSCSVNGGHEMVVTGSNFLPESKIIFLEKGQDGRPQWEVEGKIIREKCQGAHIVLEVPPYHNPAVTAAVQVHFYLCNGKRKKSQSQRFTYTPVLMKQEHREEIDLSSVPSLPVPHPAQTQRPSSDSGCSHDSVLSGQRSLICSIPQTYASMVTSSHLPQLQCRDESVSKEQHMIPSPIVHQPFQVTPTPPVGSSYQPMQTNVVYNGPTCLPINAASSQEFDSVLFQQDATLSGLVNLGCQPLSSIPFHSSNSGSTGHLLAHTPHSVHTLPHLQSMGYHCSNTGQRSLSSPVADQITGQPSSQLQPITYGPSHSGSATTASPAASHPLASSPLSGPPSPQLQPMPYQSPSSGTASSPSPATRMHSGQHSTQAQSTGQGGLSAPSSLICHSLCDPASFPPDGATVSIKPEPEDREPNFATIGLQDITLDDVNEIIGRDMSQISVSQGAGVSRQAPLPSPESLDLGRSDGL"},
  "source": "the supplement of paper PMC12067093",
  "about": "“Discovery and optimisation of a covalent ligand for TRIM25 and its application to targeted protein ubiquitination” (Chemical Science, 2025)",
  "note": "The list shows a part of the results.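 Also: competitive profiling in live THP-1 cells: cysteine peptides tagged with an iodoacetamide desthiobiotin (IA-DTB) probe, intensity after compound treatment relative to DMSO-treated cells.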",
  "data": [
    {"compound": "Cc1cc(ccc1-c1ccccc1)C(=O)N1CCCN(CC1)C(=O)CCl [compound 10]", "assay": "probe-labelled cysteine peptide fold change vs DMSO (competition) (log2 fold change); higher = less target engagement (more negative = stronger competition)", "details": "10 µM; THP-1; incubation time: 4 h", "values": [
      {"target": "NKTR_P30414_32_IMFQLFSDICPK (UniProt P30414)", "probe-labelled cysteine peptide fold change": -0.0767},
      {"target": "NCS1_P62166_38_DCPSGQLDAAGFQK (UniProt P62166)", "probe-labelled cysteine peptide fold change": 0.245},
      {"target": "NELFB_Q8WX92_254+259_AELLMSLHDLDVGEICTVDPCHK (UniProt Q8WX92)", "probe-labelled cysteine peptide fold change": -0.289},
      {"target": "NDOR1_Q9UHB4_486_VAQGQTGNFLFFGCR (UniProt Q9UHB4)", "probe-labelled cysteine peptide fold change": -0.0873},
      {"target": "NCKAP5L_Q9HCH0_1076_NGLVGPLQGCGKPPGKPSSEPGRR (UniProt Q9HCH0)", "probe-labelled cysteine peptide fold change": -0.0916},
      {"target": "NEK9_Q8TD19_556_VLACGLNEFNK (UniProt Q8TD19)", "probe-labelled cysteine peptide fold change": 0.217},
      {"target": "NFKB2_Q00653_250_GGDEVYLLCDK (UniProt Q00653)", "probe-labelled cysteine peptide fold change": -0.0177},
      {"target": "NIPBL_Q6KC79_1940_ILNITDVVAACR (UniProt Q6KC79)", "probe-labelled cysteine peptide fold change": 0.0741},
      {"target": "NDUFV1_P49821_206_GAGAYICGEETALIESIEGK (UniProt P49821)", "probe-labelled cysteine peptide fold change": -0.0696},
      {"target": "NEK9_Q8TD19_657_VSCGDEFTIAATDDNHIFAWGNGGNGR (UniProt Q8TD19)", "probe-labelled cysteine peptide fold change": 0.0253},
      {"target": "NELFB_Q8WX92_235_NVHYCTLR (UniProt Q8WX92)", "probe-labelled cysteine peptide fold change": 0.00574},
      {"target": "NDUFB9_Q9Y6M9_103_VPEWCLDDWHPSEK (UniProt Q9Y6M9)", "probe-labelled cysteine peptide fold change": 0.169},
      {"target": "NKTR_P30414_41_NFLCLCSGEK (UniProt P30414)", "probe-labelled cysteine peptide fold change": -0.102},
      {"target": "NEK9_Q8TD19_288_AMEVDSSQYSLELIQMVHSCLDQDPEQRPTADELLDRPLLR (UniProt Q8TD19)", "probe-labelled cysteine peptide fold change": 0.0112},
      {"target": "NKTR_P30414_9_GAQDRPQCHFDIEINREPVGR (UniProt P30414)", "probe-labelled cysteine peptide fold change": 0.169},
      {"target": "NELFA_Q9H3P2_44_LCFHGLSSAVK (UniProt Q9H3P2)", "probe-labelled cysteine peptide fold change": -0.136},
      {"target": "NCOR2_Q9Y618_1289_GHVLSYEGGMSVTQCSK (UniProt Q9Y618)", "probe-labelled cysteine peptide fold change": -0.155},
      {"target": "NEK9_Q8TD19_715_PIFGSLHHVPDLSCR (UniProt Q8TD19)", "probe-labelled cysteine peptide fold change": 0.0599},
      {"target": "NDRG1_Q92597_49_GETITGLLQEFDVQEQDIETLHGSVHVTLCGTPK (UniProt Q92597)", "probe-labelled cysteine peptide fold change": 0.289},
      {"target": "NDRG2_Q9UN36_274_CPVMLVVGDQAPHEDAVVECNSK (UniProt Q9UN36)", "probe-labelled cysteine peptide fold change": -0.179},
      {"target": "NCKAP1L_P55160_942_EVFSSHCPFLMGPIECLK (UniProt P55160)", "probe-labelled cysteine peptide fold change": 0.112},
      {"target": "NF2_P35240_133_IYCPPEASVLLASYAVQAK (UniProt P35240)", "probe-labelled cysteine peptide fold change": -0.114},
      {"target": "NEK9_Q8TD19_696_LAMTPTERPHGSDICTSWPR (UniProt Q8TD19)", "probe-labelled cysteine peptide fold change": 0.0982},
      {"target": "NDUFA8_P51970_110_FDECVLDK (UniProt P51970)", "probe-labelled cysteine peptide fold change": -0.333},
      {"target": "NEMF_O60524_201_RVLNPLLPYGPALIEHCLLENGFSGNVK (UniProt O60524)", "probe-labelled cysteine peptide fold change": 0.106},
      {"target": "NDUFA10_O95299_253_CEVLQYSAR (UniProt O95299)", "probe-labelled cysteine peptide fold change": -0.141},
      {"target": "NIN_Q8N4C6_695_EAHHEATCR (UniProt Q8N4C6)", "probe-labelled cysteine peptide fold change": 0.152},
      {"target": "NDUFV1_P49821_286_LFNISGHVNHPCTVEEEMSVPLK (UniProt P49821)", "probe-labelled cysteine peptide fold change": -0.0494},
      {"target": "NCKIPSD_Q9NZQ3_138_QPNGVCR (UniProt Q9NZQ3)", "probe-labelled cysteine peptide fold change": -0.425},
      {"target": "NFKBIA_P25963_167_GNTPLHLACEQGCLASVGVLTQSCTTPHLHSILK (UniProt P25963)", "probe-labelled cysteine peptide fold change": -0.33},
      {"target": "NDUFAF7_Q7L592_275_DHVEVCPDAGVIIEELSQR (UniProt Q7L592)", "probe-labelled cysteine peptide fold change": 0.399},
      {"target": "NDUFA10_O95299_67_VITVDGNICTGK (UniProt O95299)", "probe-labelled cysteine peptide fold change": 0.00064},
      {"target": "NCOA7_Q8NI08_55_CNIAVEEEYMTDEK (UniProt Q8NI08)", "probe-labelled cysteine peptide fold change": -0.00528},
      {"target": "NFIX_Q14938_6_MYSPYCLTQDEFHPFIEALLPHVR (UniProt Q14938)", "probe-labelled cysteine peptide fold change": 0.0291},
      {"target": "NDUFS6_O75380_87_VIACDGGGGALGHPK (UniProt O75380)", "probe-labelled cysteine peptide fold change": -0.147},
      {"target": "NECAP1_Q8NC96_12_ATELEYESVLCVKPDVSVYR (UniProt Q8NC96)", "probe-labelled cysteine peptide fold change": 0.0951},
      {"target": "NELFA_Q9H3P2_471_ENPCQEQGDVIQIK (UniProt Q9H3P2)", "probe-labelled cysteine peptide fold change": -0.294},
      {"target": "NFIB_O00712_120_RIDCLR (UniProt O00712)", "probe-labelled cysteine peptide fold change": -0.191},
      {"target": "NFATC3_Q12968_90_NYEGTCEIPESK (UniProt Q12968)", "probe-labelled cysteine peptide fold change": -0.215}
    ]}
  ]
}
